From publication PMC8943889 (Chemical Science, 2022)

Legend:
[1] = general procedure: Fmoc solid-phase peptide synthesis; 2-chlorotrityl resin (brevicidine series); Rink amide resin (laterocidine series); BOP/DIPEA; HATU/DIPEA for Dap9-Brev macrolactamization; conditions: whole synthesis; for isolated yield: over 28 steps; for outcome: scale of the general procedure 0.1 mmol
[2] = general procedure: Fmoc solid-phase peptide synthesis; Rink amide MBHA; BOP/DIPEA; HATU/DIPEA for Dap9-Brev macrolactamization; conditions: whole synthesis, scale 0.25 mmol
[3] = general procedure: Fmoc solid-phase peptide synthesis; 2-chlorotrityl resin; BOP/DIPEA; HATU/DIPEA for Dap9-Brev macrolactamization; conditions: whole synthesis

## PEPTIDE1{[4MeHex].N.Y.W.[Orn].[D-Orn].G.[Orn].[dW].[dT].[dI].G.[dS]}$PEPTIDE1,PEPTIDE1,10:R3-13:R2$$$V2.0
[1]; scale 0.1 mmol
  isolated yield: 2%
  isolated mass: 3 mg

## PEPTIDE1{[4MeHex].[dN].[dY].[dW].[D-Orn].[Orn].G.[D-Orn].W.S.I.G.S}$PEPTIDE1,PEPTIDE1,10:R3-13:R2$$$V2.0
[1]; scale 0.065 mmol
  isolated yield: 13%
  isolated mass: 13 mg

## PEPTIDE1{[iPel].[dS].[dY].[dW].[D-Orn].[Orn].G.[D-Orn].W.[MeDap].I.N.G.G}$PEPTIDE1,PEPTIDE1,10:R3-14:R2$$$V2.0
[2]; over 29 steps
  isolated yield: 2.4%
[2]
  final purity (method not given): purity >95%
  isolated mass: 9.7 mg

## PEPTIDE1{[4MeHex].[dN].[dY].[dW].[D-Orn].[Orn].G.[D-Orn].W.T.I.G.S}$PEPTIDE1,PEPTIDE1,10:R3-13:R2$$$V2.0
[3]
  isolated mass: 13 mg
[3]; overall, over 28 steps, scale of the general procedure 0.1 mmol
  isolated yield: 9%
[1]
  outcome: further elongation of the peptide failed due to an O → N acyl shift

## PEPTIDE1{[4MeHex].[dN].[dY].[dW].[D-Orn].[Orn].G.[D-Orn].W.[Dap].I.G.S}$PEPTIDE1,PEPTIDE1,10:R3-13:R2$$$V2.0
[1]; scale 0.1 mmol
  isolated yield: 13%
  isolated mass: 20 mg

## PEPTIDE1{[4MeHex].[dN].[dY].[dW].[D-Orn].[Orn].G.[D-Orn].W.[MeDap].I.G.S}$PEPTIDE1,PEPTIDE1,10:R3-13:R2$$$V2.0
[1]
  outcome: also attempted for MeDap9-Brev (7) but the on-resin azide reduction step caused peptide decomposition

HELM strings list residues between dots; [ac] is acetyl, [am] amide, other brackets name non-standard units.
